No constants are given. Whether binding was seen depends on the method and setting. Binding seen in cells or lysates may run through a third protein. Some binding calls cover weakened binding; strength is not graded here. Sequences can lack the tags named with a protein.
Assays:
[1] = molecular target: T1, V5-tagged Slitrk1ΔLRR1 (Δ aa 18-264), expressed in HEK293T cells (human) (UniProt Q96PX8); assay: co-IP; HEK293T cells co-transfected with Slitrk1-myc and Slitrk1-V5 or V5-tagged variants; 750 ug lysate, IP with anti-V5 and Protein A/G Plus agarose at 4 °C, blot with myc and V5 antibodies
T1 sequence: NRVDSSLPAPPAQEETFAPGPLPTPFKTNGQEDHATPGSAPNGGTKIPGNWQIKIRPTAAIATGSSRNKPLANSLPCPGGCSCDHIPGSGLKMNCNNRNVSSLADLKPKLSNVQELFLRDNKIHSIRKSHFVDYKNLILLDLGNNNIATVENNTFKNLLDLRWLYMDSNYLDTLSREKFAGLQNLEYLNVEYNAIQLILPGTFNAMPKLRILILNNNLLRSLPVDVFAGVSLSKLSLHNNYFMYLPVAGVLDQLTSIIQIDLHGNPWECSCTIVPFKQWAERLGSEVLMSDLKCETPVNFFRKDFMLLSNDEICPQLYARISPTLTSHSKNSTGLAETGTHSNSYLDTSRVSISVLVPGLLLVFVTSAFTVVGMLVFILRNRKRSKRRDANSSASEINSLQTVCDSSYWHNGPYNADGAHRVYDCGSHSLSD

[2] = molecular target: T2, V5-tagged full-length human Slitrk1 (aa 1-696), expressed in HEK293T cells (human) (UniProt Q96PX8); assay: as above
T2 sequence: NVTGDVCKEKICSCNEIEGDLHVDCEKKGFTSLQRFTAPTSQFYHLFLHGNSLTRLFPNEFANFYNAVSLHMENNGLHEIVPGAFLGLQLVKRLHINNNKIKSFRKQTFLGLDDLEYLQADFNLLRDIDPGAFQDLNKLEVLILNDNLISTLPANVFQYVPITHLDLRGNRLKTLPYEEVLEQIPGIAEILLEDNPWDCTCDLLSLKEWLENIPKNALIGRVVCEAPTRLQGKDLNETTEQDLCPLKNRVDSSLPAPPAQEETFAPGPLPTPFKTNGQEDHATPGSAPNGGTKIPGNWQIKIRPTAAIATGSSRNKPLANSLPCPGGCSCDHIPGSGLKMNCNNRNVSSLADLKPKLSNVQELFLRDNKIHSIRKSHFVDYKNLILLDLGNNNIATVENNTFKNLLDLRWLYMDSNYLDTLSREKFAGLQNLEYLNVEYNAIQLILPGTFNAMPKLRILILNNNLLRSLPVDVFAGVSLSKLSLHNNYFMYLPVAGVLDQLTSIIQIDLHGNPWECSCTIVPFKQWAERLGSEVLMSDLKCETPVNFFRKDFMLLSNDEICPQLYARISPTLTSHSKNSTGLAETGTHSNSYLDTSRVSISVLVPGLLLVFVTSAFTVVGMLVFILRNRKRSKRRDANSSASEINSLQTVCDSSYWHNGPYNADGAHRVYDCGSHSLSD

binding [1]: binds
binding [2]: binds
B1: Myc-tagged full-length human Slitrk1 (aa 1-696), expressed in HEK293T cells (protein, UniProt Q96PX8 18-696)
chain: T2 sequence
